Data taken from patent US10639379B2, “High affinity CXCR4 selective binding conjugate and method for using the same” (Mainline Biosciences LLC, priority 2017, dated 2020).

Chains of the proteins cited; added tags and fusions are not shown.
UniProt P61073, whole entry: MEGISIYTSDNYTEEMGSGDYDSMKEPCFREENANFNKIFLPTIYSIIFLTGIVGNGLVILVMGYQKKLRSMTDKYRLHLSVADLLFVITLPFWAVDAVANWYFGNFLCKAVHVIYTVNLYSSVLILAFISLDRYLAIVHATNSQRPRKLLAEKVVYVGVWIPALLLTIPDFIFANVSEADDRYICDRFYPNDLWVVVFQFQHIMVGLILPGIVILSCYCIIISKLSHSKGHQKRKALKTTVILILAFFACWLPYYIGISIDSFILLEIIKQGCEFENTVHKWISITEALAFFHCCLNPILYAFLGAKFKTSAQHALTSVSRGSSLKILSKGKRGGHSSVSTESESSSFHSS

Biological target: Human chemokine receptor CXCR4 expressed in Chem-1 cells (Homo sapiens, UniProt P61073)
Assay: biochemical
Experimental: Non-specific binding was estimated in the presence of 30 nM SDF-1α.

SMILES: CC(=O)O[C@H]1C(=O)[C@@]2(C)[C@H]([C@H](OC(=O)c3ccccc3)[C@]3(O)C[C@H](OC(=O)[C@H](OC(=O)CCN4C(=O)CC(SC[C@H](NC(=O)CCOCCOCCOCCOCCOCCOCCNC(=O)[C@H](CCCCNC(C)C)NC(=O)[C@H]5CCC(=O)N[C@@H](Cc6ccccc6)C(=O)N[C@@H](Cc6ccc(O)cc6)C(=O)N[C@@H](CCCCNC(C)C)C(=O)N[C@H](CCCNC(=N)N)C(=O)N[C@@H](Cc6ccc7ccccc7c6)C(=O)NCC(=O)N5)C(=O)NCC(N)=O)C4=O)[C@@H](NC(=O)c4ccccc4)c4ccccc4)C(C)=C1C3(C)C)[C@]1(OC(C)=O)CO[C@@H]1C[C@@H]2O (stereo partly drawn) [MLB-1713, cyclo[Phe-Tyr-Lys(iPr)-(D-Arg)-2Nal-Gly-(D-Glu)]-Lys(iPr)-(mini-PEG6)-Cys(S-paclitaxel)-Gly-NH2]
- IC50: 0.96 nM
- Kb: 0.29 nM

SMILES: CC(=O)N[C@H]1CSCc2ccccc2CSC[C@@H](C(=O)N[C@@H](CCCCNC(C)C)C(=O)NCCOCCOCCOCCOCCOCCOCCC(=O)N[C@@H](CSC2CC(=O)N(CCC(=O)O[C@@H](C(=O)O[C@H]3C[C@@]4(O)[C@@H](OC(=O)c5ccccc5)[C@@H]5[C@]6(OC(C)=O)CO[C@@H]6C[C@H](O)[C@@]5(C)C(=O)[C@H](OC(C)=O)C(=C3C)C4(C)C)[C@@H](NC(=O)c3ccccc3)c3ccccc3)C2=O)C(N)=O)NC(=O)CNC(=O)[C@H](Cc2ccc3ccccc3c2)NC(=O)[C@@H](CCCNC(=N)N)NC(=O)[C@H](CCCCNC(C)C)NC(=O)[C@H](Cc2ccc(O)cc2)NC1=O (stereo partly shown) [MLB-1707]
- IC50: 2.3 nM
- Kb: 0.7 nM
